Library screen at single concentrations

Protein sequences, listed by entry. Tags and fused reporters are not part of them. Residues count along the entry.
UniProt Q8IDJ8, 1-583: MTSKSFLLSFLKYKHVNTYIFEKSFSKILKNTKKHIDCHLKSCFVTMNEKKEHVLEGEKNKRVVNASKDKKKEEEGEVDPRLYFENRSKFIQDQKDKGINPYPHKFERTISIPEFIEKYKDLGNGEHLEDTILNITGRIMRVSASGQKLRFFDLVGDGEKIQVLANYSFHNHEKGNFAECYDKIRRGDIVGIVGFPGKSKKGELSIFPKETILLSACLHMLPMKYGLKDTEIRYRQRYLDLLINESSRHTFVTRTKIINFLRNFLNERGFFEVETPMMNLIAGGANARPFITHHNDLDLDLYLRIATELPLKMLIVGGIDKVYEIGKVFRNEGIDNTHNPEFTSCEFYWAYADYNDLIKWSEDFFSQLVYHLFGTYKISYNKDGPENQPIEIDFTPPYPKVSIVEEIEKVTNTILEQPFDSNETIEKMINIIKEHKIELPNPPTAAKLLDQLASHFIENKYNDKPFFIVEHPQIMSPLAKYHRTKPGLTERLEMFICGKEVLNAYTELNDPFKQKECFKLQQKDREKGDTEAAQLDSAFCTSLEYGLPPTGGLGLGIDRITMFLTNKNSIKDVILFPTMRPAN

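Enzyme assay of the cytosolic lysyl-tRNA synthetase in 384-well plates, read by luminescence. Target: Lysine-tRNA ligase, Plasmodium falciparum 3D7 (UniProt Q8IDJ8). Concentration: 30 µM. Direction is inferred from only a few compounds that gave an IC50; most scored high, so higher reads as stronger inhibition. Of about 69,000 compounds tested this way, about 49 (0.071%) reached 50% or more in at least one test.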

Results are given as percent effect. The record does not define 0% and 100%; most values in the screen are far below 50% and negative numbers occur (in some assays of this library far below -100). This is an unselected part of the compounds tested.

structure	effect
Cc1ncc(CN2CCC3(CCCN(CC4CCC4)C3)C2)cn1 (centres unmarked)	-3.07
COc1ccc(F)cc1C(C)NC(=O)NCCCn1cncn1 (centres unmarked)	-1.645
Cc1nc2cc(C(=O)N3CCCC(n4cncn4)C3)ccc2n1C (centres unmarked)	-7.15
CC(C)c1cc(C(=O)NCC2(C(N)=O)CCOCC2)nn1C(C)(C)C	1.085
CC(C)=CCCC1(C)C=Cc2c(cc(C)n(CC(=O)O)c2=O)O1 (centres unmarked)	-0.3294
Cc1nn(C)c2nc(-c3ccccn3)nc(NCCCOC(C)C)c12	6.527
CC(=O)N(C)CC(=O)NC(CC(C)C)c1cccs1 (centres unmarked)	-1.368
NC(=O)Cc1ccc(NC(=O)C2CCOCC2)cc1	-0.2491
Cc1nc(C(=O)N2CCCC2c2cncc(CN3CCCC3)n2)co1 (centres unmarked)	-0.4695
Cc1ccc(-c2nnn(CCN3C(=O)CCC3=O)n2)cc1	0.1342
COc1ccnc(NC(Cc2ccccc2)C(=O)N(C)C)n1 (centres unmarked)	-2.807
CN(Cc1ccc(F)cc1)CC1(O)CCN(C(=O)c2ccn(C)n2)C1 (centres unmarked)	3.205
CS(=O)(=O)NCCC(=O)Nc1cnn(-c2ccccc2Cl)c1	0.29
CC(C)(NCC(=O)N1CCCC(C(N)=O)C1)c1ccc(Cl)cc1 (centres unmarked)	-0.3278
N#Cc1ccc(CS(=O)(=O)NC(=O)c2ccc3c(c2)COC3)cc1	2.01
COc1c(CNC2CCc3cc(C)ccc32)c(C)nn1C (centres unmarked)	-0.1072
Cc1ccccc1CS(=O)(=O)CC(=O)NCc1ccccc1F	7.557
CSC(C)C(=O)NCCC(=O)N1CCN(c2ccccn2)CC1 (centres unmarked)	4.128
O=C1N(CC2CC2)CCC12CCN(c1ncccn1)CC2	3.208
COCCNC(=O)Cn1c(-c2ccco2)cc2cccnc21	1.331
Cc1nnc2n1CCN(C(=O)c1cnc3c(cnn3CC(C)C)c1)C2	3.047
CCC[C@@H]1CN(c2ncnc3sccc23)C[C@H]1NS(C)(=O)=O	-1.981
Cc1nc(CN2CCc3ccc(S(N)(=O)=O)cc32)oc1C	2.147
CN(C)CCN1CC(C(=O)N2CCC(c3cccc(O)c3)CC2)CC1=O (centres unmarked)	5.99
CC(C)CCc1n[nH]c(C(=O)O)c1Br	2.393
COCC(=O)NC(CC(C)C)c1nc2cccnc2n1C (centres unmarked)	-2.003
NC(=O)C1=NC2=NS(=O)(=O)c3ccccc3N2N1Cc1ccccc1Cl	7.374
Cc1nc(CNCC2CCCN(C(=O)OC(C)(C)C)C2)cs1 (centres unmarked)	0.7127
Cc1cc(C)n(CC2CCCN2C(=O)Cc2c(C)nn(C)c2C)n1 (centres unmarked)	1.334
CCC(CC#N)n1ccc(C(F)(F)F)n1 (centres unmarked)	1.22
CO[C@@H]1CCN(Cc2ccoc2)C[C@@H]1Cc1ccccc1	5.115
CCN1C(=O)CC[C@]12CC[C@@H](NC(=O)NCc1cccnc1)CC2	2.098
CC(C)COCCCNC(=O)NCC(O)c1cccc(F)c1 (centres unmarked)	-0.7301
Cn1nc2c(cc1=O)CN(CCN1CCCC1=O)CC2	0.1482
Cc1cccc(C)c1OCCNC(=O)CNC(=O)C1CCCC1	1.329
COc1ccccc1C1Cn2c(C)cnc2CN1Cc1ccc(C)nc1 (centres unmarked)	-2.319
OCc1cn(Cc2cccc(C(F)(F)F)c2)nn1	6.939
Cc1ccccc1N1CCN(C(=O)c2cnc(N(C)C)nc2C)C(C)C1 (centres unmarked)	13.91
COCC(=O)N1CCCC(c2cccc(-n3ccnc3)n2)C1 (centres unmarked)	3.428
Cc1ncc2c(c1CNC(=O)C1(c3ccc(F)cc3)CC1)CCNC2	1.186
CC(C)(C)CNC(=O)c1ccc(C(=O)O)cn1	2.056
Cc1cc(S(=O)(=O)N2CCC(S(C)(=O)=O)CC2)ccc1F	-1.284
Cc1cc(C)n(CCN2CCN(C(=O)c3cc4ccccc4o3)CC2)n1	-0.6677
COCCCC1(CO)CCCN(CCc2ccccn2)C1 (centres unmarked)	2.407
Cc1ccc(C(=O)N2CC(Oc3ccccc3C)C2)s1	6.46
c1ccc(CN2CCc3nnc(COc4ccccn4)n3CC2)nc1	-5.516
O=C(O)[C@@H]1CN(Cc2ccc(-c3cc[nH]n3)s2)C[C@H]1C1CC1	8.784
COc1ccc(Oc2ncccc2C(N)=O)cc1CN1CCCC1	1.467
O=C(NCCc1ccccn1)[C@@]12CCO[C@@H]1CCN(C1CCC1)C2	1.334
COCC(O)CNC(=O)Nc1c(F)cc(F)cc1-c1ccccc1 (centres unmarked)	-0.5256
c1cnnc(N2CCCC2CNCc2nnc(C3CC3)o2)c1 (centres unmarked)	4.346
CCN(Cc1ccoc1)C(=O)Nc1ccccc1CN1CCOCC1	1.317
COc1ccc(CN2CCSCC2)c(OC)c1	-2.135
CC1(NC(=O)Cc2csc(-c3cccc(Cl)c3)n2)CCS(=O)(=O)C1 (centres unmarked)	-0.4277

Some entries from above, unchanged:

structure,effect
c1cnnc(N2CCCC2CNCc2nnc(C3CC3)o2)c1 (centres unmarked),4.346
Cc1cccc(C)c1OCCNC(=O)CNC(=O)C1CCCC1,1.329
CO[C@@H]1CCN(Cc2ccoc2)C[C@@H]1Cc1ccccc1,5.115
CN(C)CCN1CC(C(=O)N2CCC(c3cccc(O)c3)CC2)CC1=O (centres unmarked),5.99
Cc1ccccc1N1CCN(C(=O)c2cnc(N(C)C)nc2C)C(C)C1 (centres unmarked),13.91
Cc1ccc(-c2nnn(CCN3C(=O)CCC3=O)n2)cc1,0.1342

Source: ChEMBL document CHEMBL3988442, “University of Dundee, Small-Polar-MMV Screening Library” (2021).